This passage reports binding results from article PMC11900812.

Sequences of proteins named here, by UniProt entry; tags and fusion partners are left off.
UniProt Q92560: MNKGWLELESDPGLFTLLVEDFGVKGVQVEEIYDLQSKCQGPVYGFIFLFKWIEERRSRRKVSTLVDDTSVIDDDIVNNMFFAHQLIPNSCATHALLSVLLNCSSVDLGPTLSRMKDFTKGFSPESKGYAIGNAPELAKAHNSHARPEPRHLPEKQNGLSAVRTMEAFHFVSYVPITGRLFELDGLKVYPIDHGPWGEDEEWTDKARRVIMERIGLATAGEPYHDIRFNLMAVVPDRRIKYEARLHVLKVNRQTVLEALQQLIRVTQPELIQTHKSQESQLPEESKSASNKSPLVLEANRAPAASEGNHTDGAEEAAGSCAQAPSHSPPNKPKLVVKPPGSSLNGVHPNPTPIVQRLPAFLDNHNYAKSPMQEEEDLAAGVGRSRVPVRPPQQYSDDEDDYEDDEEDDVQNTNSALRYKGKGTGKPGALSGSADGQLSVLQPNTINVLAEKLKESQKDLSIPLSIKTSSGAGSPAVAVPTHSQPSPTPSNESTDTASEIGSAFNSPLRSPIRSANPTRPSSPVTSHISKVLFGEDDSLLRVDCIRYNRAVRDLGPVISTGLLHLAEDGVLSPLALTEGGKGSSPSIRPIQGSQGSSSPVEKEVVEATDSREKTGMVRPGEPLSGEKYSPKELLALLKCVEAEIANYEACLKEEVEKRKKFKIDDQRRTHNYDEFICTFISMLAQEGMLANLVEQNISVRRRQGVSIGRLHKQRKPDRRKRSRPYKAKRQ
UniProt P51617: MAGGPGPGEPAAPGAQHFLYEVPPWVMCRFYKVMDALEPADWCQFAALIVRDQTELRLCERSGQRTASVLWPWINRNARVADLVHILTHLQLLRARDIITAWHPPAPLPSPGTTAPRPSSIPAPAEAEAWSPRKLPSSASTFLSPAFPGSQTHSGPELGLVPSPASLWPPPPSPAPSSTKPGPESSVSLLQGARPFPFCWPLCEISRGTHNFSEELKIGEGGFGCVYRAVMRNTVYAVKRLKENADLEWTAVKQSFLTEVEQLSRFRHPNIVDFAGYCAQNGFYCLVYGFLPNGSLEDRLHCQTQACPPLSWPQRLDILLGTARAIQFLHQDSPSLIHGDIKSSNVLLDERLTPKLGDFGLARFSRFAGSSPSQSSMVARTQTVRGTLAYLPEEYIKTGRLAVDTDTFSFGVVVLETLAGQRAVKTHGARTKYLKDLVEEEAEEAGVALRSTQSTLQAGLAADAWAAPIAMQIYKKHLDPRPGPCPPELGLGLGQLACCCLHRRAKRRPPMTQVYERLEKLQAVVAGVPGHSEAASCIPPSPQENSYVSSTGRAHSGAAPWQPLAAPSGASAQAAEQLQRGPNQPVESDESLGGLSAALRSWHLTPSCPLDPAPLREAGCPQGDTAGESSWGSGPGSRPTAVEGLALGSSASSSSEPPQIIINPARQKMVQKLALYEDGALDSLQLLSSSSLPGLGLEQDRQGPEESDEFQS

These are yes or no findings as the source states them, for the method shown. In cells and extracts the contact can be indirect. Here binding means that the protein was enriched with, or labelled near, the bait; the list need not be complete.

The target of this test is HA tagged BAP1 (human) (UniProt Q92560). Kind of test: affinity purification with mass spectrometry; HA tagged BAP1 overexpressed in 293T cells; co-immunoprecipitation and mass spectrometry of the interacting proteins.

For “interleukin-1 receptor-associated kinase 1 (IRAK1), endogenous (from UniProt P51617 1-712)”, the binding entry is given as “binds”.
